From the supplement of paper PMC10849652
The other results are listed elsewhere or left out.

Chains of the proteins cited; added tags and fusions are not shown. Lines headed by an entry give the natural chain unless they say otherwise; changes in a name come on top.
UniProt P27348: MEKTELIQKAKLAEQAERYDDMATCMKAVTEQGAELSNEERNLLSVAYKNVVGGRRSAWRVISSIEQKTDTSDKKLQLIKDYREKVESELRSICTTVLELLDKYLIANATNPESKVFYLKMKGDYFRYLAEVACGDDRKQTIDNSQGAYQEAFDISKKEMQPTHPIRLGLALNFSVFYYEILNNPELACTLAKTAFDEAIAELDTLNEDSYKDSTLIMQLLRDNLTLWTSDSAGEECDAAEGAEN
UniProt Q9BSR8: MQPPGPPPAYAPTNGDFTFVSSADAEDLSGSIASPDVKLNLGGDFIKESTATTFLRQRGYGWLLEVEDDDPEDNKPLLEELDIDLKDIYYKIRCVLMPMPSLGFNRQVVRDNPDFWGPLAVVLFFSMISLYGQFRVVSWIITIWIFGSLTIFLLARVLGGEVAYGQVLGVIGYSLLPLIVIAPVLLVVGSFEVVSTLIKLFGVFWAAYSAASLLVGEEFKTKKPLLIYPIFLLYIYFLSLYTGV
UniProt Q5VVQ6: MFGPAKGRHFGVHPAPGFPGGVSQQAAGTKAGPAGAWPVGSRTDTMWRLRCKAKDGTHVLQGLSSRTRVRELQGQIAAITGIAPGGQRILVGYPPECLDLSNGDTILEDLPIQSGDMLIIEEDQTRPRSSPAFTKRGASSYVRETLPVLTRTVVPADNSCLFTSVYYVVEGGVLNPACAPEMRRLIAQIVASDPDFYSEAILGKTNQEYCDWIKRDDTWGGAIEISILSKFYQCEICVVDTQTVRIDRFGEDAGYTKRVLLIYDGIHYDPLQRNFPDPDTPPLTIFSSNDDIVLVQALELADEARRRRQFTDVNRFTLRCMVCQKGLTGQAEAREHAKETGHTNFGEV
UniProt Q8N4Q0: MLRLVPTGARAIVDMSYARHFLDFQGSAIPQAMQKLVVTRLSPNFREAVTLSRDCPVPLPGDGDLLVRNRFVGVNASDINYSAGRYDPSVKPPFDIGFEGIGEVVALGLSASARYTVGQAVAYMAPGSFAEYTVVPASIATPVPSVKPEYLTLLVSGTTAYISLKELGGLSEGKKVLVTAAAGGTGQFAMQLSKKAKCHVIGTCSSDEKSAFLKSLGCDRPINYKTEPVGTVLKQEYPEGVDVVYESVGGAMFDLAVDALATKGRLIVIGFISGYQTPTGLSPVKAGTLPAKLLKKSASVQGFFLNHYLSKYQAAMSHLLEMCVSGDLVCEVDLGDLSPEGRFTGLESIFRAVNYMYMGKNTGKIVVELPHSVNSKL
UniProt O43592: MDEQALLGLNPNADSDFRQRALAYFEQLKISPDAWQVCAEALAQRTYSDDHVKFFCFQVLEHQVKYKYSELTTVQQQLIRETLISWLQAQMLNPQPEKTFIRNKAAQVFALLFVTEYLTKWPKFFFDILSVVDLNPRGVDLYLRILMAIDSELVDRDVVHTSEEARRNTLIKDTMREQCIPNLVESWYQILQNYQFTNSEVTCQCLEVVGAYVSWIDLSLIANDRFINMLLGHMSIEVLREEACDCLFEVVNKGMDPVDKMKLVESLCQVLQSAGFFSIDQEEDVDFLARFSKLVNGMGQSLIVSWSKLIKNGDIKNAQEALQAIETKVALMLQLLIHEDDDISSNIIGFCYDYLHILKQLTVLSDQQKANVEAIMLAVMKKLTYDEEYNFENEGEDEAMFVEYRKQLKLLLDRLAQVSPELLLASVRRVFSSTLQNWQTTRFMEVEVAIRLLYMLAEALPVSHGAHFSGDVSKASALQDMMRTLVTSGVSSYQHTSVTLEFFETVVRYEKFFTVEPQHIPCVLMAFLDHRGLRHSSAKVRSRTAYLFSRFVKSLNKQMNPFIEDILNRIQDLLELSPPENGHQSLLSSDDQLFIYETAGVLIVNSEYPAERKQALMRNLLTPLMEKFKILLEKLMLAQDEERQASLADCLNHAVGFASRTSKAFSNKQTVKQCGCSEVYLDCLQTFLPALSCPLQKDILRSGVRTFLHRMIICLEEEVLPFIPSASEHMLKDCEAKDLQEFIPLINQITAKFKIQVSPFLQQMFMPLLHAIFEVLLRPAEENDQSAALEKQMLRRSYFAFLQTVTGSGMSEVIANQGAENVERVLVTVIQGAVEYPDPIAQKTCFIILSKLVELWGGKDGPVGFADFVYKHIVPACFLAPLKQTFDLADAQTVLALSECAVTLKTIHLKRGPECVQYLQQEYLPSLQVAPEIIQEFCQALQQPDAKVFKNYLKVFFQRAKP
UniProt O43542: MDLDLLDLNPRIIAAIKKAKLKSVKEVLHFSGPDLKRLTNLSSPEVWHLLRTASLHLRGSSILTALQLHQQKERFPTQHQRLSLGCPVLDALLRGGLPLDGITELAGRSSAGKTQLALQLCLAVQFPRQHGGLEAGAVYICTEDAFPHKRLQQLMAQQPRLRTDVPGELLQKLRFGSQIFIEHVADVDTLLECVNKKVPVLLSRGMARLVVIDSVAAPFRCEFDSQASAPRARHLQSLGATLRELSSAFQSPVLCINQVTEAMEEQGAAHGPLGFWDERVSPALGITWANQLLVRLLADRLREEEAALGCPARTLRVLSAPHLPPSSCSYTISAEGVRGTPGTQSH
UniProt Q14202: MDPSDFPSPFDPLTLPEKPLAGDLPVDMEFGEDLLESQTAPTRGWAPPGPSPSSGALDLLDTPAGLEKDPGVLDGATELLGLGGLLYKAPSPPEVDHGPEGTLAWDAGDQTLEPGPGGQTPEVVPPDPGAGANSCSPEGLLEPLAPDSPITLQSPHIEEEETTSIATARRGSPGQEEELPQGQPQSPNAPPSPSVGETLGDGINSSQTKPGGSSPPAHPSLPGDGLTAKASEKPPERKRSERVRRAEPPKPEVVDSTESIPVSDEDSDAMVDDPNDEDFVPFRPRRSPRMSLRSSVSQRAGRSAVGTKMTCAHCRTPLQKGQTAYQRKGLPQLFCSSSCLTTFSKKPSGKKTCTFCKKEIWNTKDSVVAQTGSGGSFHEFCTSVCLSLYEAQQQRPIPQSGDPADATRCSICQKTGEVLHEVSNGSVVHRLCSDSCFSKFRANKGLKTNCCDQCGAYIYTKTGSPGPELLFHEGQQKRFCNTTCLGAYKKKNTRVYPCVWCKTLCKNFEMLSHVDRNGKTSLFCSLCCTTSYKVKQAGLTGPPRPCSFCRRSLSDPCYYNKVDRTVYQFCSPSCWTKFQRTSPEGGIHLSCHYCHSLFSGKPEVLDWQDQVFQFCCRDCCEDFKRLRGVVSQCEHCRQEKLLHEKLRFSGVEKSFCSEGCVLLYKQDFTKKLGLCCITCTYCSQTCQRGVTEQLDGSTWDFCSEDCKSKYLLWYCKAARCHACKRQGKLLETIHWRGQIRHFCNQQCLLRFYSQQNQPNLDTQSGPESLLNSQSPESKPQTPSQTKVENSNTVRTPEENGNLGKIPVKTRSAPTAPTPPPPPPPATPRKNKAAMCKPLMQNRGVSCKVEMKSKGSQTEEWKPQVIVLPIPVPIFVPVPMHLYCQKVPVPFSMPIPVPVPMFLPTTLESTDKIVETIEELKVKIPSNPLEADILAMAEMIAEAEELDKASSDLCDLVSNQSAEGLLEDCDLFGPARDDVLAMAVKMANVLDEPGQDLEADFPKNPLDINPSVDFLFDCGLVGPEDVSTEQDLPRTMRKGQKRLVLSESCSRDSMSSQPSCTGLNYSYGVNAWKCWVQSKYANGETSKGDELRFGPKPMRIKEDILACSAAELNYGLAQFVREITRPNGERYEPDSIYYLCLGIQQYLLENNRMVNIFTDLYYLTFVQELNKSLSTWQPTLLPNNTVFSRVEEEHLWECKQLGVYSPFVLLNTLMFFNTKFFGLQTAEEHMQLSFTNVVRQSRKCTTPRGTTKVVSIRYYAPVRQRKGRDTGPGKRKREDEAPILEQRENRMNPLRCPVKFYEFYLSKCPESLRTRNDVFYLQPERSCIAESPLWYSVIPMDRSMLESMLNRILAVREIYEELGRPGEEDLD
UniProt Q9C0B5: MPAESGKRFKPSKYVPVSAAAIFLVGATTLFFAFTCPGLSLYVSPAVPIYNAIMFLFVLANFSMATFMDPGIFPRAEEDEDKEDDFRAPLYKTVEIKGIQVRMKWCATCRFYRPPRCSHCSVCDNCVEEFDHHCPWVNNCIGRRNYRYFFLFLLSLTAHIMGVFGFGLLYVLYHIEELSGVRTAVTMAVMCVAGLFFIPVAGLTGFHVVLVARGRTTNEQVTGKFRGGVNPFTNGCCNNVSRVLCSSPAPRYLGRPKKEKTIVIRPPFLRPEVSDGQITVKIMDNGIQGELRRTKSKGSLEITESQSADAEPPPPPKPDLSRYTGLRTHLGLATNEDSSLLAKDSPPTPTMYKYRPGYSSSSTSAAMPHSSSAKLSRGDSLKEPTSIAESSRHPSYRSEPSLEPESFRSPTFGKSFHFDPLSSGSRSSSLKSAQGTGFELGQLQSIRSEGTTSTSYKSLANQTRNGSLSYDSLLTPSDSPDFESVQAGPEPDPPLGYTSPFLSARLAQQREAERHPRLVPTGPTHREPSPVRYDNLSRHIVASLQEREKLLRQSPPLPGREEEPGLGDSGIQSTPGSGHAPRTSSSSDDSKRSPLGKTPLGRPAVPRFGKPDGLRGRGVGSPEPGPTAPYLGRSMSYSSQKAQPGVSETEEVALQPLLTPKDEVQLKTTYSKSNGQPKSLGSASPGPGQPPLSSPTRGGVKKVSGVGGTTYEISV
UniProt Q96NC0: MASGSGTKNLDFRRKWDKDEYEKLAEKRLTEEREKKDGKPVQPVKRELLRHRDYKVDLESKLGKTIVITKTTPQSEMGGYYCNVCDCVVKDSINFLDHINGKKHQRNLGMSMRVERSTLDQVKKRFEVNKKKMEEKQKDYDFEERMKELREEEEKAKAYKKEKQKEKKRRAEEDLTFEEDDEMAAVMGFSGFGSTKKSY

Legend:
Assay in all cases: log2 fold change, soluble protein after heating vs DMSO (PISA); higher = thermal stabilisation; K562 cells, 10 uM, 30 min; active = over 0.2 and 3.5 SD of the protein, either way, in both replicates (recomputed)
[1] = compound: COC1=CC=C(C=C1)CN2C=CC3=C2C=C(C=C3)C(=O)NO
Outline: (§1)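 Quantification of soluble protein used TMTpro 16plex LC-MS/MS, with channel sums equalised. Samples were the supernatant after 21,000xg for 90 min of pooled aliquots from K562 cells (2×10^6 cells/mL) treated with 10 μM compound for 30 min, heated for 3 min over 48°C-58°C, and extracted in PBS with 0.5% NP-40 at 4°C. Values, from duplicates, describe thermal stability against control samples on a log2 fold-change scale.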

filanesib = compound: CON(C)C(=O)N1N=C(c2cc(F)ccc2F)S[C@@]1(CCCN)c1ccccc1 [filanesib]
Outline: as §1

zotarolimus = compound: CO[C@H]1C[C@@H]2CC[C@@H](C)[C@@](O)(O2)C(=O)C(=O)N2CCCC[C@H]2C(=O)O[C@H]([C@H](C)C[C@@H]2CC[C@H](n3cnnn3)[C@H](OC)C2)CC(=O)[C@H](C)/C=C(\C)[C@@H](O)[C@@H](OC)C(=O)[C@H](C)C[C@H](C)/C=C/C=C/C=C/1C [zotarolimus]
Outline: as §1

idasanutlin = compound: COc1cc(C(=O)O)ccc1NC(=O)[C@@H]1N[C@@H](CC(C)(C)C)[C@](C#N)(c2ccc(Cl)cc2F)[C@H]1c1cccc(Cl)c1F [idasanutlin]
Outline: as §1

alisertib = compound: COc1cc(Nc2ncc3c(n2)-c2ccc(Cl)cc2C(c2c(F)cccc2OC)=NC3)ccc1C(=O)O [alisertib]
Outline: as §1

[2] = compound: COc1cc2nc(-c3cc(F)ccc3O)nc(N[C@@H]3CNC[C@H]3C(C)(C)O)c2cc1OC
Outline: as §1

gefitinib = compound: COc1cc2ncnc(Nc3ccc(F)c(Cl)c3)c2cc1OCCCN1CCOCC1 [gefitinib]
Outline: as §1

[3] = compound: COc1cccc2cc(-c3nc([C@H]4CC[C@H](C(=O)O)CC4)n4ncnc(N)c34)[nH]c12
Outline: as §1

lapatinib = compound: CS(=O)(=O)CCNCc1ccc(-c2ccc3ncnc(Nc4ccc(OCc5cccc(F)c5)c(Cl)c4)c3c2)o1 [lapatinib]
Outline: as §1

pictilisib = compound: CS(=O)(=O)N1CCN(Cc2cc3nc(-c4cccc5[nH]ncc45)nc(N4CCOCC4)c3s2)CC1 [pictilisib]
Outline: as §1

[4] = compound: CS(=O)(=O)c1ccc(-c2cnc(N)c(C(=O)Nc3ccccc3)n2)cc1
Outline: as §1

crizotinib = compound: C[C@@H](Oc1cc(-c2cnn(C3CCNCC3)c2)cnc1N)c1c(Cl)ccc(F)c1Cl [crizotinib]
Outline: as §1

[5] = compound: C[C@@H]1COCCN1C2=NC(=NC(=C2)C3(CC3)S(=O)(=O)C)C4=C5C=CNC5=CC=C4
Outline: as §1

[6] = compound: C[C@H](C1=CC=C(C=C1)C(=O)NC2=C3C=CNC3=NC=C2)N
Outline: as §1

gandotinib = compound: Cc1cc(Nc2cc(CN3CCOCC3)c3nc(C)c(Cc4ccc(Cl)cc4F)n3n2)n[nH]1 [gandotinib]
Outline: as §1

[7] = compound: Cc1cc(SCc2sc(-c3ccc(C(F)(F)F)cc3)nc2C)ccc1OCC(=O)O
Outline: as §1

doramapimod = compound: Cc1ccc(-n2nc(C(C)(C)C)cc2NC(=O)Nc2ccc(OCCN3CCOCC3)c3ccccc23)cc1 [doramapimod]
Outline: as §1

ispinesib = compound: Cc1ccc(C(=O)N(CCCN)[C@@H](c2nc3cc(Cl)ccc3c(=O)n2Cc2ccccc2)C(C)C)cc1 [ispinesib]
Outline: as §1

duvelisib = compound: C[C@H](Nc1ncnc2nc[nH]c12)c1cc2cccc(Cl)c2c(=O)n1-c1ccccc1 [duvelisib]
Outline: as §1

tozasertib = compound: Cc1cc(Nc2cc(N3CCN(C)CC3)nc(Sc3ccc(NC(=O)C4CC4)cc3)n2)n[nH]1 [tozasertib]
Outline: as §1

Measured: log2 fold change

YWHAQ (UniProt P27348)
inactive: [1] 0.3 | filanesib -0.086 | zotarolimus 0.196 | idasanutlin -0.084 | alisertib -0.001 | [2] -0.148 | gefitinib 0.007 | [3] -0.098 | lapatinib 0.219 | pictilisib -0.142 | [4] -0.013 | crizotinib 0.026 | [5] 0.074 | [6] -0.302 | gandotinib -0.071 | [7] 0.119 | doramapimod -0.12 | ispinesib 0.241

YIPF4 (UniProt Q9BSR8)
inactive: [1] -0.098 | filanesib 0.077 | zotarolimus 0.015 | idasanutlin -0.049 | alisertib -0.134 | [2] -0.094 | gefitinib 0.038 | [3] 0.06 | lapatinib -0.13 | pictilisib 0.15 | [4] 0.013 | crizotinib 0.054 | [5] 0.095 | [6] -0.089 | gandotinib -0.086 | [7] -0.04 | doramapimod 0.005 | ispinesib -0.024

YOD1 (UniProt Q5VVQ6)
inactive: [1] 0.037 | filanesib -0.067 | zotarolimus 0.05 | idasanutlin -0.038 | alisertib 0.19 | [2] 0.018 | gefitinib 0.006 | [3] 0.011 | lapatinib 0.01 | pictilisib -0.001 | [4] 0.117 | crizotinib -0.052 | [5] 0.055 | [6] -0.04 | gandotinib -0.149 | [7] 0.061 | doramapimod 0 | ispinesib -0.042

ZADH2 (UniProt Q8N4Q0)
inactive: [1] 0.008 | filanesib 0.065 | zotarolimus 0.07 | idasanutlin -0.235 | alisertib 0.021 | [2] 0.045 | gefitinib -0.029 | [3] -0.059 | lapatinib -0.049 | pictilisib 0.14 | [4] -0.063 | crizotinib 0.127 | [5] 0.22 | [6] -0.071 | gandotinib 0.128 | [7] -0.027 | doramapimod -0.013 | ispinesib -0.107

XPOT (UniProt O43592)
inactive: [1] 0.011 | filanesib -0.052 | zotarolimus 0.022 | idasanutlin -0.073 | alisertib -0.059 | [2] 0.033 | gefitinib -0.023 | [3] -0.046 | lapatinib -0.028 | pictilisib 0.023 | [4] 0.009 | crizotinib -0.123 | [5] 0.024 | [6] -0.001 | gandotinib -0.177 | [7] 0.068 | doramapimod -0.011 | ispinesib -0.12

XRCC3 (UniProt O43542)
inactive: [1] 0.075 | filanesib -0.056 | zotarolimus -0.031 | idasanutlin 0.019 | alisertib -0.069 | [2] 0.044 | gefitinib 0.053 | [3] -0.021 | lapatinib -0.024 | pictilisib -0.177 | [4] -0.036 | crizotinib -0.012 | [5] -0.03 | [6] -0.03 | duvelisib 0.067 | gandotinib 0.054 | tozasertib -0.003 | [7] -0.003 | doramapimod -0.104 | ispinesib 0.1

ZMYM3 (UniProt Q14202)
inactive: [1] 0 | filanesib 0.012 | zotarolimus 0.093 | idasanutlin 0 | alisertib 0.057 | [2] -0.045 | gefitinib 0.034 | [3] 0.001 | lapatinib 0.007 | pictilisib -0.022 | [4] 0.023 | crizotinib 0.04 | [5] -0.058 | [6] 0.045 | gandotinib 0.051 | [7] -0.011 | doramapimod -0.009 | ispinesib -0.013

ZDHHC5 (UniProt Q9C0B5)
inactive: [1] -0.01 | filanesib 0.048 | zotarolimus -0.085 | idasanutlin -0.111 | alisertib -0.107 | [2] 0.117 | gefitinib 0.031 | [3] -0.007 | lapatinib -0.072 | pictilisib 0.047 | [4] 0.129 | crizotinib 0.075 | [5] -0.011 | [6] 0.006 | gandotinib -0.041 | [7] -0.03 | doramapimod 0.027 | ispinesib -0.035

ZMAT2 (UniProt Q96NC0)
active: [1] 0.378
inactive: filanesib -0.084 | zotarolimus -0.034 | idasanutlin 0.061 | alisertib -0.045 | [2] -0.028 | gefitinib -0.021 | [3] 0.071 | lapatinib 0.016 | pictilisib 0.01 | [4] -0.127 | crizotinib 0.098 | [5] -0.022 | [6] -0.012 | gandotinib -0.014 | [7] -0.048 | doramapimod -0.024 | ispinesib 0.042
